Data on one substance can be found in PMC12375581.

By UniProt entry, the sequences of proteins in these tests, tags left out. Residues count along the entry.
UniProt Q9UPY5: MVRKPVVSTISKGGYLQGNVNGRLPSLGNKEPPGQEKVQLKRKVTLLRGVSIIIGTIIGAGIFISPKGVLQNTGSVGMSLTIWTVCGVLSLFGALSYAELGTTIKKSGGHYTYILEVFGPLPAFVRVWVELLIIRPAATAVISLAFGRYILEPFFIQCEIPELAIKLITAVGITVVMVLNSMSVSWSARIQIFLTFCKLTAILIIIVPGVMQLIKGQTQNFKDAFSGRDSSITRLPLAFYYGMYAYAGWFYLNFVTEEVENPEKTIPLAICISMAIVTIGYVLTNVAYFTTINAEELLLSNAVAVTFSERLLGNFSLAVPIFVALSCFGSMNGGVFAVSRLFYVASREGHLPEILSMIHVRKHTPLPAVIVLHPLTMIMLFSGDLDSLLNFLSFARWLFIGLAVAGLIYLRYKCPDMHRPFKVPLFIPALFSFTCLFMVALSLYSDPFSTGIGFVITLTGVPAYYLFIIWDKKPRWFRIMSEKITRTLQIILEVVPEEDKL
UniProt P02671, residues 36-866: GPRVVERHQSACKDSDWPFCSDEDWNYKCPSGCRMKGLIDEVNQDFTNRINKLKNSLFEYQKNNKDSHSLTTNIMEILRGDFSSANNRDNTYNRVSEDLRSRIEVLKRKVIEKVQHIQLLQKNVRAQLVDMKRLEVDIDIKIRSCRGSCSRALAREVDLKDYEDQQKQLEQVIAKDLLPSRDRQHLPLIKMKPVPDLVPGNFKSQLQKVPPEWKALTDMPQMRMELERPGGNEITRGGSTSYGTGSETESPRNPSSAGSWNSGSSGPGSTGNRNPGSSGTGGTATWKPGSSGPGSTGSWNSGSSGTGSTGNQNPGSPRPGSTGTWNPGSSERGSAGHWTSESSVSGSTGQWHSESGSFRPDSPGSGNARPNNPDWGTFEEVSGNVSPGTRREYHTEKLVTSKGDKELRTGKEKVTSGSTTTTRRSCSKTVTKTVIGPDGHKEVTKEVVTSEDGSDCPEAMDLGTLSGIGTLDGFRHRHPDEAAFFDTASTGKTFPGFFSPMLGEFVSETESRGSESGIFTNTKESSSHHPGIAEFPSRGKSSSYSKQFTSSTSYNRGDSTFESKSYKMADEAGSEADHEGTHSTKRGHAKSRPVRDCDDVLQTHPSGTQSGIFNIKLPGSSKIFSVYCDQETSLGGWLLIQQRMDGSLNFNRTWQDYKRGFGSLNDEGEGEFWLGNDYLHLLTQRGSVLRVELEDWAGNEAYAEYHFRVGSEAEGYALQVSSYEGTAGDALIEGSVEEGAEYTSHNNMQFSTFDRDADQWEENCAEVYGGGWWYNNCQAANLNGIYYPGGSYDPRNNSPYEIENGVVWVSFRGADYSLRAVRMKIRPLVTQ

These are yes or no findings as the source states them, for the method shown. Binding seen in cells or lysates may run through a third protein. Some entries that bind do so weakly or less than the wild type.

The test deals with Solute carrier family 7 member 11 (SLC7A11/xCT) (human (endogenous in A549)) (UniProt Q9UPY5). Kind of test: co-IP; endogenous proteins in A549 whole-cell lysates; anti-FGA or anti-xCT (mouse monoclonal) antibody 1h, then magnetic Protein A/G beads 1h, four washes with lysis buffer; normal mouse IgG as negative control; reciprocal.

On to “fibrinogen alpha chain (FGA) (from UniProt P02671 36-866)”, for which the binding result is listed as “binds”.
